Reference: PMC7398064
No constants are given. Whether binding was seen depends on the method and setting. In cells and extracts the contact can be indirect. Some results given as binding are weak or reduced against the parent protein; the word gives no strength.

Sequences of proteins named here, by UniProt entry; tags and fusion partners are left off.
UniProt O75340: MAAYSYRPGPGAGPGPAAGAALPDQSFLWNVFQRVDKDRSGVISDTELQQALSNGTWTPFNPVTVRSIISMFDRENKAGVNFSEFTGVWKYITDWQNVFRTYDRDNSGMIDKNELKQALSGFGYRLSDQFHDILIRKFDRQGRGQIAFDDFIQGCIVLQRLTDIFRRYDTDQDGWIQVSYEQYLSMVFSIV

Assays:
[1] = target: c-Raf (Raf-1) (human (endogenous in HCT116)) (UniProt P04049); assay: co-IP; endogenous proteins, HCT116 lysate immunoprecipitated with anti-PDCD6 or anti-c-Raf antibody in the presence of 5 mM EDTA
[2] = target: c-Raf (Raf-1) (human (endogenous in HCT116)) (UniProt P04049); assay: co-IP; endogenous proteins, HCT116 lysate (50 mM Tris-HCl pH 7.4, 100 mM NaCl, 0.5 mM Ca2+, 0.5% NP-40); IP with anti-PDCD6 or anti-c-Raf antibody, Western blot
[3] = target: Programmed cell death protein 6 (PDCD6) (human (endogenous in HCT116)) (UniProt O75340); assay: co-IP; endogenous proteins, HCT116 lysate immunoprecipitated with anti-PDCD6 or anti-c-Raf antibody in the presence of 5 mM EDTA
[4] = target: Programmed cell death protein 6 (PDCD6) (human (endogenous in HCT116)) (UniProt O75340); assay: co-IP; endogenous proteins, HCT116 lysate (50 mM Tris-HCl pH 7.4, 100 mM NaCl, 0.5 mM Ca2+, 0.5% NP-40); IP with anti-PDCD6 or anti-c-Raf antibody, Western blot

Substance | binding [1] | binding [2] | binding [3] | binding [4]
Programmed cell death protein 6 (PDCD6) (from UniProt O75340 1-191) | no binding (condition: with 5 mM EDTA) | binds | – | –
c-Raf (Raf-1) (from UniProt P04049 1-648) | – | – | no binding (condition: with 5 mM EDTA) | binds
